Assay results from paper PMC7819943, “Rice protein-binding microarrays: a tool to detect cis-acting elements near promoter regions in rice”.
The list shows a part of the results.

Chains of the proteins cited; added tags and fusions are not shown.
UniProt Q0JBA9, entry or part of it: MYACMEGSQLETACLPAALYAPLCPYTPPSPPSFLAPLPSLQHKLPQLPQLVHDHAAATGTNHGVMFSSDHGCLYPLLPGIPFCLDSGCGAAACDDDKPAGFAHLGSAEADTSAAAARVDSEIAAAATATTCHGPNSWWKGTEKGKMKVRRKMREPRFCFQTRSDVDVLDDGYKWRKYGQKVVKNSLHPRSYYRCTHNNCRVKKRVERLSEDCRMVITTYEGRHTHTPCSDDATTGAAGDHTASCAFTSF

What follows are sequences tested against OsWRKY34 (Oryza sativa, UniProt Q0JBA9 1-250) (assay: protein-binding microarray (RPBM); PBS, 2% BSA, 51.3 ng/ul salmon testes DNA, 50 uM zinc acetate, 200 nM TF, 25 C, 1 h; high values mean tight binding). Settings: protein: recombinant; tags: N-terminal polyhistidine and DsRed monomer fusion (pET32a); label: CyDye5-dUTP incorporated in the synthesized complementary strand; 3' TTTTT single-stranded linker to array surface; dsDNA, one strand shown.
Summary of the method: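 Binding signal is defined as the fluorescence intensity of each feature in arbitrary units, read on an Axon 4000B scanner. Transcription factors with N-terminal polyhistidine and DsRed fusions came from E. coli BL21-CodonPlus and were purified on Ni–NTA. They were incubated at 200 nM for 1 h at 25 °C on a custom Agilent array that had been made double-stranded with Cy5-dUTP, with 50 µM zinc acetate present, and the array was washed.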

Sequence	binding signal
ATCCGATATTACCTGTAATCTTTTCTATGCATACATCATACGGAGTCACCTAGTGCAG	10200 fluorescence intensity (a.u.)
CTATCGCCACCTTTTGCCTTGATTTCTCCTTATTGCTAAACGGAGTCACCTAGTGCAG	14600 fluorescence intensity (a.u.)
CTCGATCGATCCCGTTATTCCTTTTTAATCTTTTCTTGTGCGGAGTCACCTAGTGCAG	8460 fluorescence intensity (a.u.)
GCCGCCCAAAAATGTTTTGGTATACTCCTTGCTGGTGATACGGAGTCACCTAGTGCAG	8720 fluorescence intensity (a.u.)
ATATTTTTCATTTTTATTTATCTCTCTTCCATATAAATTTCGGAGTCACCTAGTGCAG	8890 fluorescence intensity (a.u.)
GCTATGAGTGCATCTAGATTTTTTGTAACTTCCATCTACTCGGAGTCACCTAGTGCAG	8640 fluorescence intensity (a.u.)
CTAGGGTTCGGTCGCCACCGCGTTCTCCTCGCCCAATCTCCGGAGTCACCTAGTGCAG	8280 fluorescence intensity (a.u.)
CCGTACACACACACGACGCAGCCGTAGACATGCAACCGAACGGAGTCACCTAGTGCAG	8350 fluorescence intensity (a.u.)
TTGAAGAGTGAACCTTATTATTTAACCATTACTATGTTCTCGGAGTCACCTAGTGCAG	8760 fluorescence intensity (a.u.)
CCAAAAACCGCCTCCGCCACCGCTTACCCATCCACGGATCCGGAGTCACCTAGTGCAG	10900 fluorescence intensity (a.u.)
ATGGATGGAAAATATTACTATAGTGGCATGGTTCTAATTTCGGAGTCACCTAGTGCAG	8280 fluorescence intensity (a.u.)
TCACACTGTTCCATGATAGCTGCCGGCACTAACCCTTCACCGGAGTCACCTAGTGCAG	10400 fluorescence intensity (a.u.)
ACACACAAAGATCTCGTCCTCTTTTTTCCTTCTTTTTTGGCGGAGTCACCTAGTGCAG	9500 fluorescence intensity (a.u.)
CACGCACCCAAATTTCAAACTCCGCGGCCGCTCCGCCACTCGGAGTCACCTAGTGCAG	8760 fluorescence intensity (a.u.)
CCGCAAAAACCACGCCGCCATCACAGCATTCGTGCATCCCCGGAGTCACCTAGTGCAG	8920 fluorescence intensity (a.u.)
GTGATGTTAGAGCATTTTATTAGCCTTTGTCTTTTTTAACCGGAGTCACCTAGTGCAG	9020 fluorescence intensity (a.u.)
ATCTCTCACTCGATTTTCTCACTCAAATTTACAGTGTATTCGGAGTCACCTAGTGCAG	11100 fluorescence intensity (a.u.)
GTGTATCTAGCTCATCTCTAACCGTTCCAATCGTACCCTGCGGAGTCACCTAGTGCAG	8030 fluorescence intensity (a.u.)
AAGTTGAATTTGGTCTTGCACGTTTTTGGAGTTTTATATTCGGAGTCACCTAGTGCAG	8040 fluorescence intensity (a.u.)
TTCACCGTCGCGTCGTCCACCATTTGCGTGCCTGATTAATCGGAGTCACCTAGTGCAG	11300 fluorescence intensity (a.u.)
ATCCGTCTTTTGCATTTGTTGTGTTCGATCTTATAACTGCCGGAGTCACCTAGTGCAG	14200 fluorescence intensity (a.u.)

Sequence	binding signal
CCACCTATCCACGTCAACTCCCTCCGTCCCTCGCCCGCGCCGGAGTCACCTAGTGCAG	8660 fluorescence intensity (a.u.)
CATATCATAATACATGTGCTTTACTATAATTTTAACCATACGGAGTCACCTAGTGCAG	8880 fluorescence intensity (a.u.)
TCTCGAAATCGATTCTCTGCTCGCATCCTGCCCTCATCCACGGAGTCACCTAGTGCAG	11100 fluorescence intensity (a.u.)
TTCCATTAGATTGCTCCAATCCCTTTTCTTTTCACCTTTTCGGAGTCACCTAGTGCAG	9960 fluorescence intensity (a.u.)
GCATGGGCTTTCTTTTCTCGAAGGGATGGGCTTAGTTGCTCGGAGTCACCTAGTGCAG	8030 fluorescence intensity (a.u.)
TCGCGCTTCAACCCTAGTATTTCCGTCTCCCGCGCCACTGCGGAGTCACCTAGTGCAG	8260 fluorescence intensity (a.u.)
GCCGCCGCCACCACCACCACCACTGCCGCCACCGCCACCTCGGAGTCACCTAGTGCAG	9900 fluorescence intensity (a.u.)
ACTCGTGCGCCACAGCGCTCTCACACGCGCGCCACACTCACGGAGTCACCTAGTGCAG	9090 fluorescence intensity (a.u.)
GGCTTTGTCTCAGTAGCTCTGTATTTGTGCTGTAAAACTCCGGAGTCACCTAGTGCAG	10400 fluorescence intensity (a.u.)
AGCACAGAGCTGGCGCCGACTTCTTCTTTTCCACGGCGCCCGGAGTCACCTAGTGCAG	11100 fluorescence intensity (a.u.)
GTTTATCAGAATCTGGAGTTTTGGACACAAGGGGTGGTGGCGGAGTCACCTAGTGCAG	9000 fluorescence intensity (a.u.)
TTTTGCCACGCTTCATCCTCTCATCTTTTCGCTTATGCTTCGGAGTCACCTAGTGCAG	9410 fluorescence intensity (a.u.)
TGATGGTGGTGGTGGTGGTCGTCGTCGTCGGCTGTTTTGCCGGAGTCACCTAGTGCAG	14900 fluorescence intensity (a.u.)
CGCTCGCCCGCCACCGCCGCCGCCCTCGCCTGGATCTACCCGGAGTCACCTAGTGCAG	12700 fluorescence intensity (a.u.)
CTTTATTGTCTGTTACCTGGTTAGTTGGTCATGTAAACTCCGGAGTCACCTAGTGCAG	9320 fluorescence intensity (a.u.)
TCCACTCCACTCCAGTCCACAGCACTAACCCATCGGTCCCCGGAGTCACCTAGTGCAG	8800 fluorescence intensity (a.u.)
GCCGTCTCGCGGATCATCGTCCCCTACTCCGACCAGCCATCGGAGTCACCTAGTGCAG	9460 fluorescence intensity (a.u.)
GTTAATGCTGGACTCTTTCGTCTTTTTAATCCATATTAATCGGAGTCACCTAGTGCAG	9310 fluorescence intensity (a.u.)
TCCTGACCCACCGCGCGCCCCACCGACCCGGCCTTCCTCGCGGAGTCACCTAGTGCAG	10400 fluorescence intensity (a.u.)
GAATGGATTGGTGCTACCTCTCATGGCCTTTTCAACTTTCCGGAGTCACCTAGTGCAG	9710 fluorescence intensity (a.u.)
TCCTCCTTTTTAACTTTGGGCCGAATTCTTCTTCTCTCTCCGGAGTCACCTAGTGCAG	8950 fluorescence intensity (a.u.)

Sequence	binding signal
TATCTGCACACAGATCATCACCATACTTGCATCTGTCGTTCGGAGTCACCTAGTGCAG	8860 fluorescence intensity (a.u.)
AAGTTAACTTTGGATCCAAACTTCTAACTTTTTCTATCATCGGAGTCACCTAGTGCAG	8250 fluorescence intensity (a.u.)
TCCCTAGCCTAGCCCAATTCAGCATAATACCTCCCGTAGTCGGAGTCACCTAGTGCAG	8860 fluorescence intensity (a.u.)
TCCTTCTCGTCTCATCCCGTCGACCCGCCGCCGCCTCAATCGGAGTCACCTAGTGCAG	11800 fluorescence intensity (a.u.)
ACTCTACTGCTGTCCCGAGCCTGTGGATCCAAATCCAACGCGGAGTCACCTAGTGCAG	8460 fluorescence intensity (a.u.)
TTAGGCCCATTTATAATTTGCTAGTTCGCTGCCAGCCACCCGGAGTCACCTAGTGCAG	8490 fluorescence intensity (a.u.)
TAGCTTACCAGTTGTAGTACGTTCCACACTTCCAGCGATGCGGAGTCACCTAGTGCAG	9730 fluorescence intensity (a.u.)
AGATGTGAAGAGATCCTCATAGAACTTTCCGGCCAATTTTCGGAGTCACCTAGTGCAG	8090 fluorescence intensity (a.u.)
ACATACTCCCTACTTCCCTAAATGTTTAATGCCGTTGATTCGGAGTCACCTAGTGCAG	8460 fluorescence intensity (a.u.)
TATTTATAGTGTCTGAGTATAGAACTTCGCTTCTCCTTTCCGGAGTCACCTAGTGCAG	8190 fluorescence intensity (a.u.)
GTAAATTGACACGATAACTGATAGATAGTACTCTTTTTTACGGAGTCACCTAGTGCAG	8160 fluorescence intensity (a.u.)
ACACGTTTTGGATTCGAATTCAGGCCTCTTGACAGCATCACGGAGTCACCTAGTGCAG	9450 fluorescence intensity (a.u.)
ATATATATATATATATATATGGTTTTGCGGTTCGAGCACGCGGAGTCACCTAGTGCAG	9780 fluorescence intensity (a.u.)
AACAGCTTCCTGTCGATGGTTGGTAAATTGTAAAATGATTCGGAGTCACCTAGTGCAG	8820 fluorescence intensity (a.u.)
TGATAGTGGTGGGGTGGTATTGGTCCTAGCTTTGTACTCCCGGAGTCACCTAGTGCAG	18700 fluorescence intensity (a.u.)
AAGATAGATGCCACTAATTTTTACACTGTATTTTGTAACTCGGAGTCACCTAGTGCAG	8290 fluorescence intensity (a.u.)
TATTATGAAATAAGTTGCTATTTTGTGGTTGAGGGGTACGCGGAGTCACCTAGTGCAG	8480 fluorescence intensity (a.u.)
TTGTTTGGTTTTAAAATATTGCTATGTTTTTCTATGAATTCGGAGTCACCTAGTGCAG	9250 fluorescence intensity (a.u.)
ATTTTCTGACTAAGTACCACATCAATGCCATGTTAGCTGACGGAGTCACCTAGTGCAG	8890 fluorescence intensity (a.u.)
TCCTCCTCTCCGCTTCTCCATTCGCCGGCGCCGCCCGAACCGGAGTCACCTAGTGCAG	10200 fluorescence intensity (a.u.)
TCCATTCCACGACAACTCCAGCCATGTACATGTATATATACGGAGTCACCTAGTGCAG	9140 fluorescence intensity (a.u.)

Sequence	binding signal
TTCACATCTCGTTTTATGTCTTCTTTGTATTTGCATGAAGCGGAGTCACCTAGTGCAG	9100 fluorescence intensity (a.u.)
CGCCGCGCTTCCGCCTCTCCACCCGCCGCCGCCTCCCTCGCGGAGTCACCTAGTGCAG	9590 fluorescence intensity (a.u.)
TGGCCGGGAGGGTTGGCCCTTGTGGTTTCGGGGTTTGGTTCGGAGTCACCTAGTGCAG	15900 fluorescence intensity (a.u.)
GATAACAGCACCAATCTTAACATTGCAGCTTATTACACACCGGAGTCACCTAGTGCAG	9500 fluorescence intensity (a.u.)
TATAAGTCTTTCTATCATTGTCCACATTCATATAGATATTCGGAGTCACCTAGTGCAG	9730 fluorescence intensity (a.u.)
CCGCACCACCGCTCCCGCCCGTCTCACCGGCGACGCAGCCCGGAGTCACCTAGTGCAG	8650 fluorescence intensity (a.u.)
GTATTTTTCTCCATACTGCAAAACGCACCGTGGACGCGACCGGAGTCACCTAGTGCAG	8100 fluorescence intensity (a.u.)
GGATAGTGTGTTGCAAGACCGATGTTTGGTCCATGTAGCCCGGAGTCACCTAGTGCAG	9140 fluorescence intensity (a.u.)
AACCACAACCTGCCACGTACTCTACTCTACCCGCCGCGCGCGGAGTCACCTAGTGCAG	11800 fluorescence intensity (a.u.)
TTTGACTGTTTTCTGTTCTTTTGCAAAATGTGGAGCCATGCGGAGTCACCTAGTGCAG	8520 fluorescence intensity (a.u.)
TCTGCGCGCCGTACCTCTGCACGTACGTACGCCGGCGCGCCGGAGTCACCTAGTGCAG	8300 fluorescence intensity (a.u.)
TACTCTAATAGCTATCTACTGTCACTCGGGAGTTTATTCGCGGAGTCACCTAGTGCAG	8180 fluorescence intensity (a.u.)
GCCGGCGGCAGGGTGGGGCGGGGACGCCTGCCGGCGTCGGCGGAGTCACCTAGTGCAG	9860 fluorescence intensity (a.u.)
CACTGCAATGACTAGATTACGTGCTCTTTCGCAACCCATACGGAGTCACCTAGTGCAG	9520 fluorescence intensity (a.u.)
ACATATAATTGCCACGTCAGCGCCACATCAATGCCACGTGCGGAGTCACCTAGTGCAG	8840 fluorescence intensity (a.u.)
GCCGATCTCCATCCCGCGAGCGAGCAGGGGCGCCCGGCGCCGGAGTCACCTAGTGCAG	8430 fluorescence intensity (a.u.)
CTCATTGCATCTAGCTAGCTTTTCTGTCTCCTGAATTTCTCGGAGTCACCTAGTGCAG	8910 fluorescence intensity (a.u.)
GGTACAGAAATAGCCAGTAGTATTATCATTCACACTTCCACGGAGTCACCTAGTGCAG	8510 fluorescence intensity (a.u.)
CTCTCTCTCGGCGAAATGCAGCACCCAAAATTACGGCCCACGGAGTCACCTAGTGCAG	9870 fluorescence intensity (a.u.)
CCTTCCTTTTTGTTGACTCACCTACTCTGTTAATCTCTACCGGAGTCACCTAGTGCAG	9630 fluorescence intensity (a.u.)
ACACATGTAATATCACTTAGCTTTTTCATGAATGGACAATCGGAGTCACCTAGTGCAG	8870 fluorescence intensity (a.u.)

5 entries from above in another layout.
Sequence | binding signal
GCTATGAGTGCATCTAGATTTTTTGTAACTTCCATCTACTCGGAGTCACCTAGTGCAG | 8640 fluorescence intensity (a.u.)
CTAGGGTTCGGTCGCCACCGCGTTCTCCTCGCCCAATCTCCGGAGTCACCTAGTGCAG | 8280 fluorescence intensity (a.u.)
CCGTACACACACACGACGCAGCCGTAGACATGCAACCGAACGGAGTCACCTAGTGCAG | 8350 fluorescence intensity (a.u.)
TTGAAGAGTGAACCTTATTATTTAACCATTACTATGTTCTCGGAGTCACCTAGTGCAG | 8760 fluorescence intensity (a.u.)
CCAAAAACCGCCTCCGCCACCGCTTACCCATCCACGGATCCGGAGTCACCTAGTGCAG | 10900 fluorescence intensity (a.u.)
